# Data: the supplement of paper PMC10849652
# Sequences of proteins named here, by UniProt entry; tags and fusion partners are left off. A change or cut given only in a name is not applied to a line headed by its entry.
# UniProt Q9UGU5: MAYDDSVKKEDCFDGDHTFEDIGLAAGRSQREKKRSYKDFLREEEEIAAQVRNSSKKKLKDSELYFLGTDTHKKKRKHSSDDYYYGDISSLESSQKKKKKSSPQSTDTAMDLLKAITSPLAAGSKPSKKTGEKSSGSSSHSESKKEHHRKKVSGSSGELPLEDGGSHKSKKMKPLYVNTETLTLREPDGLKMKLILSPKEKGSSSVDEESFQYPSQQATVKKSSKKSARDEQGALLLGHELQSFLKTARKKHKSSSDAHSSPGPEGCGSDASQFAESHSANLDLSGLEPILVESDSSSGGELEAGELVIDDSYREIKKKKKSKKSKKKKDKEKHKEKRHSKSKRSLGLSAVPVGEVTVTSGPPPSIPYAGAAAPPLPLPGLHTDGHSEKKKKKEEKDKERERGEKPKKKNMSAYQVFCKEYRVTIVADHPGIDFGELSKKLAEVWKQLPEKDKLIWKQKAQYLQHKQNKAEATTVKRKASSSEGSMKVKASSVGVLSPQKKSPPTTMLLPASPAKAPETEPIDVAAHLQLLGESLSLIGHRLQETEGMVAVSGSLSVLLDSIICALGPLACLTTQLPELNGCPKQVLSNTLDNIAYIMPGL
# UniProt P04439, whole entry, looked up: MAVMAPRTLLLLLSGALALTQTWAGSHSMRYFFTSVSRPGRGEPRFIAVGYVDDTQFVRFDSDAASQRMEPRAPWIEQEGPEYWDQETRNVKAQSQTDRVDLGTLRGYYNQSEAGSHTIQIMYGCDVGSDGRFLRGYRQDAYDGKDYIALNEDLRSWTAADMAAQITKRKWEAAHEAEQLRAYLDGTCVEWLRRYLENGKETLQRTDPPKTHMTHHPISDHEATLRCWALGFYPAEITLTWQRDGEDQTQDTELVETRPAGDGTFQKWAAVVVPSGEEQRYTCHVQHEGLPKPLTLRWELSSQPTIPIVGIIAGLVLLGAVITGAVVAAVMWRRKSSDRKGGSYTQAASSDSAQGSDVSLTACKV
# UniProt P30939: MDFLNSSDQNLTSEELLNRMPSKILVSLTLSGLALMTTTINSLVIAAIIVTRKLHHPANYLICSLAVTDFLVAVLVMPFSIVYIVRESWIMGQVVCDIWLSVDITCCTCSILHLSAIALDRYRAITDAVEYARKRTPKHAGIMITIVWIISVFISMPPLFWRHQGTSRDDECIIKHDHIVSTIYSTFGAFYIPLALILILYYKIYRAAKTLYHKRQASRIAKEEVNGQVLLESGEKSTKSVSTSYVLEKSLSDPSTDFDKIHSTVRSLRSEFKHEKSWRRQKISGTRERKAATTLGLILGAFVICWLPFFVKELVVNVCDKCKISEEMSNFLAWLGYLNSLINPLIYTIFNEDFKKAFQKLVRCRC
# UniProt Q05084: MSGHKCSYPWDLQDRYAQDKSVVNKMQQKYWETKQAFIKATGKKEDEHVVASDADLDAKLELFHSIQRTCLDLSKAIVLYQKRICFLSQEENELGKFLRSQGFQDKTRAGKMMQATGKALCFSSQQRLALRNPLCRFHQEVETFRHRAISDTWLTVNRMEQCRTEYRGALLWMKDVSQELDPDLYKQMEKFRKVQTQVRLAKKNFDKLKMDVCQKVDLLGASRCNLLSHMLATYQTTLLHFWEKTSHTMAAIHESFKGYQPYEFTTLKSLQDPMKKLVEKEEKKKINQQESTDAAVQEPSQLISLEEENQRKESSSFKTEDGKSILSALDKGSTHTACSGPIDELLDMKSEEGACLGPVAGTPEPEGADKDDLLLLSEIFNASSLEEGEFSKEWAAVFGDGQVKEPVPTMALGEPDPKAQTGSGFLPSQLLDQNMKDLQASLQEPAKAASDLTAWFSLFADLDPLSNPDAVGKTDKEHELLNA
# UniProt Q9UJC3, whole entry, looked up: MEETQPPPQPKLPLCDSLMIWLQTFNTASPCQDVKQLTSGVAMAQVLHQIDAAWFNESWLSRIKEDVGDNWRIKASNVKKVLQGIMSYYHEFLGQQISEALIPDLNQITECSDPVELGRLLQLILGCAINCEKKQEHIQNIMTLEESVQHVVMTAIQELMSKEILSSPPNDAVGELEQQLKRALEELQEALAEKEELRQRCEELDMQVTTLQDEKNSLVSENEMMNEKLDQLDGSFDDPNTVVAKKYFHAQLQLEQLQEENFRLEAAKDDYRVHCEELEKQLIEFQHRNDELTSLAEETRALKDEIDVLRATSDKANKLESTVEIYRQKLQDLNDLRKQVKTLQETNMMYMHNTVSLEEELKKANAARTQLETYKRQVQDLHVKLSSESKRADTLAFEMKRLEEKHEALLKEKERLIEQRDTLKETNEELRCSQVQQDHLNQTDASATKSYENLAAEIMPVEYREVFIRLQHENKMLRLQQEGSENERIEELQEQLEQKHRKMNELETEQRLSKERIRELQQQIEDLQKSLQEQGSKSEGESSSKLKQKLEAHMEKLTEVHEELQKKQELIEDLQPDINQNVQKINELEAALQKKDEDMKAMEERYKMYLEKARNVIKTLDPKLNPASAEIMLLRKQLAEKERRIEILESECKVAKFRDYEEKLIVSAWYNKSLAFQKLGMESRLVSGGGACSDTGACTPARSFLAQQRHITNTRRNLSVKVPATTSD
# UniProt P28356, whole entry, looked up: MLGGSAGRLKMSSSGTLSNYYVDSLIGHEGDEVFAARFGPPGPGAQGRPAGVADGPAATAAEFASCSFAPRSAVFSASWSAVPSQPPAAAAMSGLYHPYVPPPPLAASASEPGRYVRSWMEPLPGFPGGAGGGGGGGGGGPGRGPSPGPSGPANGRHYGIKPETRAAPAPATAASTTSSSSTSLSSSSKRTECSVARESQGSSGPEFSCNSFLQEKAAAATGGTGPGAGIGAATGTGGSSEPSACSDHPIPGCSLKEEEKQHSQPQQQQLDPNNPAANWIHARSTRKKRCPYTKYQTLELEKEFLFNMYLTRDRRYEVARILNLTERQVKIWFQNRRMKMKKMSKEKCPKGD
# UniProt P41134: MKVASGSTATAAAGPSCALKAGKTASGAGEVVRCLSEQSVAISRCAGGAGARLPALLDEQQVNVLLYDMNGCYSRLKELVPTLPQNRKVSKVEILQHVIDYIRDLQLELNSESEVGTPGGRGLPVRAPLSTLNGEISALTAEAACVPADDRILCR
# UniProt Q58FF6, whole entry, looked up: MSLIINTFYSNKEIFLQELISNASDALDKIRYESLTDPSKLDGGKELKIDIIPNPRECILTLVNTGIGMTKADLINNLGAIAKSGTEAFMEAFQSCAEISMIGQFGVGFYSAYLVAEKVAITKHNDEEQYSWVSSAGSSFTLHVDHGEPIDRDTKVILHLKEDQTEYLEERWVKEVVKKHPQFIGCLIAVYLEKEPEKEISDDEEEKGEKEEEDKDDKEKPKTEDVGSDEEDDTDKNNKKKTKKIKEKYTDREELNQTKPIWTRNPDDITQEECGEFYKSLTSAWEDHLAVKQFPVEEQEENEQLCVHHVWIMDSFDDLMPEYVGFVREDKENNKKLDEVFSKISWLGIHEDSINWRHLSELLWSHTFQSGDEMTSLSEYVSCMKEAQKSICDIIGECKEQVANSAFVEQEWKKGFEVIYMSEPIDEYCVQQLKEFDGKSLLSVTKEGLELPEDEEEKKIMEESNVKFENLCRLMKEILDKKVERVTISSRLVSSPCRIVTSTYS
# UniProt Q96FZ2: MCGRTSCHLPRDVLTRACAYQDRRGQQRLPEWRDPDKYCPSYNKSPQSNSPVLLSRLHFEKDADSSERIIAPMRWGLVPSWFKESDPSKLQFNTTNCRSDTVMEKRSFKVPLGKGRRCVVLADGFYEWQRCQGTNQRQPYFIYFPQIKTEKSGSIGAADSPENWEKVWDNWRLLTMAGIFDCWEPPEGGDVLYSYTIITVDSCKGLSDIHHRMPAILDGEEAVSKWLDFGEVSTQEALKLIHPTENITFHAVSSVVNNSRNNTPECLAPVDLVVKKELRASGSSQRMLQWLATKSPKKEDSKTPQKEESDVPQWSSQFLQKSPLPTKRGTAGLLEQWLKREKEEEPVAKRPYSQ
# UniProt Q96ED9: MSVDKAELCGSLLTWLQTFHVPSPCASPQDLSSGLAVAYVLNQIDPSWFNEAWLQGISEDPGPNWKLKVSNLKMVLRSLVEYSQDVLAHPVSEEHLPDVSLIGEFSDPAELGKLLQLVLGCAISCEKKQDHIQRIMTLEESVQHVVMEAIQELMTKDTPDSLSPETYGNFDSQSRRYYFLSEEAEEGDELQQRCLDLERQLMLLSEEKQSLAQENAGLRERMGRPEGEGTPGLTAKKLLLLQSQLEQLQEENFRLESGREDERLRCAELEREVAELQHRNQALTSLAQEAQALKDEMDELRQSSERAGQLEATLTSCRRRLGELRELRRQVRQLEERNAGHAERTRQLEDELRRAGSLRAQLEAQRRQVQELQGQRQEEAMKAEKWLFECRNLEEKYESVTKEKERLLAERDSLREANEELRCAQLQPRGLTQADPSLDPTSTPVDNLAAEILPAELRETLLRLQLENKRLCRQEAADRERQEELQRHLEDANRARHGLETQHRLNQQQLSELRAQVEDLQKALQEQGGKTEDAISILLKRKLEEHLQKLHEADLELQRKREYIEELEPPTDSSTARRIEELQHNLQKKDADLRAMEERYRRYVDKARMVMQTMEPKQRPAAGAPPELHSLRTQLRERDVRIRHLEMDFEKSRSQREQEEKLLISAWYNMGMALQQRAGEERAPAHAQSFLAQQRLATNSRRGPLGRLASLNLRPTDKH
# The other results are listed elsewhere or left out.
# Assays:
# Test in all cases: log2 fold change, soluble protein after heating vs DMSO (PISA); higher = thermal stabilisation; K562 cells, 10 uM, 30 min; active = over 0.2 and 3.5 SD of the protein, either way, in both replicates (recomputed)
# [1] = compound: CC1=C(SC2=C1C(=N[C@H](C3=NN=C(N32)C)CC(=O)N)C4=CC=C(C=C4)Cl)C
# Method in brief: (§1)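 Thermal stability values are relative to control samples and come from duplicates. They are expressed as log2 fold changes. For measurement, K562 cells (2×10^6 cells/mL) received 10 μM compound for 30 min, and aliquots were heated for 3 min over 48°C-58°C, pooled, and extracted at 4°C in PBS with 0.5% NP-40. Soluble protein, the supernatant after 21,000xg for 90 min, was quantified by TMTpro 16plex LC-MS/MS with equalised channel sums.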
# [2] = compound: c1ccc([C@@H]2C[C@H]2NC2CCNCC2)cc1
# Method in brief: as §1
# [3] = compound: C1=CC=C(C=C1)[C@H](COC2=CC3=C(C=C2)NC(=O)N3)NC(=O)C4=CC=CN(C4=O)CC5=CC(=C(C=C5)F)F
# Method in brief: as §1
# [4] = compound: CC1=C2C(=CC=C1)N=C(N(C2=O)C3=CC=CC=C3C)CN4C=NC5=C(N=CN=C54)N
# Method in brief: as §1
# [5] = compound: Cc1sc2c(c1C)C(c1ccc(Cl)cc1)=N[C@@H](CC(=O)OC(C)(C)C)c1nnc(C)n1-2
# Method in brief: as §1
target,measurement,setting,value
HMGXB4 (UniProt Q9UGU5),log2 fold change,[1],inactive: 0.39
same,log2 fold change,[2],inactive: -0.054
HLA-A isoform 2 (UniProt P04439),log2 fold change,[1],inactive: -0.176
same,log2 fold change,[2],inactive: -0.013
HTR1F (UniProt P30939),log2 fold change,[1],inactive: 0.114
same,log2 fold change,[2],inactive: 0.261
ICA1 isoform 2 (UniProt Q05084),log2 fold change,[1],inactive: 0.166
same,log2 fold change,[2],inactive: -0.014
HNRNPK isoform 3 (UniProt P61978),log2 fold change,[3],inactive: 0.014
same,log2 fold change,[4],inactive: 0.074
same,log2 fold change,[5],inactive: 0.061
HOOK1 (UniProt Q9UJC3),log2 fold change,[4],inactive: 0.064
HOXD9 (UniProt P28356),log2 fold change,[1],inactive: -0.017
same,log2 fold change,[4],inactive: 0.238
same,log2 fold change,[2],inactive: 0.033
ID1 (UniProt P41134),log2 fold change,[3],inactive: 0.057
same,log2 fold change,[5],inactive: 0.01
HSP90AB4P (UniProt Q58FF6),log2 fold change,[3],inactive: -0.214
same,log2 fold change,[1],inactive: 0.289
same,log2 fold change,[5],inactive: -0.099
same,log2 fold change,[2],inactive: -0.069
HMCES (UniProt Q96FZ2),log2 fold change,[3],inactive: -0.226
same,log2 fold change,[5],inactive: -0.011
HOOK2 (UniProt Q96ED9),log2 fold change,[1],inactive: 0.145
same,log2 fold change,[5],inactive: 0.017
same,log2 fold change,[2],inactive: -0.04

# Copied from the listing (seven entries):
target,measurement,setting,value
HMGXB4 (UniProt Q9UGU5),log2 fold change,[2],inactive: -0.054
HLA-A isoform 2 (UniProt P04439),log2 fold change,[1],inactive: -0.176
same,log2 fold change,[2],inactive: -0.013
HTR1F (UniProt P30939),log2 fold change,[1],inactive: 0.114
same,log2 fold change,[2],inactive: 0.261
ICA1 isoform 2 (UniProt Q05084),log2 fold change,[1],inactive: 0.166
same,log2 fold change,[2],inactive: -0.014
